Measurements from patent publication US20100028355A1.
No constants are given. Whether binding was seen depends on the method and setting. Binding seen in cells or lysates may run through a third protein. A yes stands for co-enrichment or nearness to the bait. Other partners may have been found. Sequences can lack the tags named with a protein.

Chains of the proteins cited; added tags and fusions are not shown. Residues count along the entry.
UniProt P35991, residues 2-659: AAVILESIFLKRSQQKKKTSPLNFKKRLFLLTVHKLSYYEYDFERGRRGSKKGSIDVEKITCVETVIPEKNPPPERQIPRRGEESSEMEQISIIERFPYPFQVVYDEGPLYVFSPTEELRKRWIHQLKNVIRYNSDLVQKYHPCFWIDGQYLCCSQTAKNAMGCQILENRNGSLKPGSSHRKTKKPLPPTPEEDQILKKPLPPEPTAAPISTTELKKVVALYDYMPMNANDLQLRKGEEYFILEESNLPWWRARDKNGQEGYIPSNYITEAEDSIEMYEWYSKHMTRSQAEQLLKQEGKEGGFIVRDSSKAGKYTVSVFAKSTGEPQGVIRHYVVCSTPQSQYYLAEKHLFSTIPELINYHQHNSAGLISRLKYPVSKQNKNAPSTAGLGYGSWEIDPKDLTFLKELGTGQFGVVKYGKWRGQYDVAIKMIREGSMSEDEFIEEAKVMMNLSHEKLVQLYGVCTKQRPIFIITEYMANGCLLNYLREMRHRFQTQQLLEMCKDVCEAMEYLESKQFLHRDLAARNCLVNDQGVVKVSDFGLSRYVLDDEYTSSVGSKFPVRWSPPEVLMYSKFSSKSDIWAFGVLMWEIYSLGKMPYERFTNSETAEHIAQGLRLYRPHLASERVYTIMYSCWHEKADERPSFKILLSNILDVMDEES

Molecular target: Bruton's tyrosine kinase (BTK) (mouse) (UniProt P35991)
Assay: GST pull-down from mouse bone marrow cell lysate, Coomassie gel band identified by mass spectrometry

B1: GST-HIMF fusion protein (protein, mouse, UniProt Q9EP95 24-111, looked up, not shown: a dimerising Fc or GST)
chain: DETIEIIVENKVKELLANPANYPSTVTKTLSCTSVKTMNRWASCPAGMTATGCACGFACGSWEIQSGDTCNCLCLLVDWTTARCCQLS
- binding: binds
